The target of this experiment is laminin alpha 4 LG domain recombinant protein LAMA4_(826–1816) (human) (UniProt Q16363). Nature of the experiment: ELISA; plates coated with 1 μg/mL recombinant laminin LG domain; 1 μg/mL GF added; bound GF detected with an antibody for each GF; BSA-coated wells as control; both purified. On the technique in general: In an ELISA, binding on a coated surface is turned into a signal by an enzyme label.

Protein sequences, listed by entry. Tags and fused reporters are not part of them. Lines headed by an entry give the natural chain unless they say otherwise; changes in a name come on top.
UniProt Q16363: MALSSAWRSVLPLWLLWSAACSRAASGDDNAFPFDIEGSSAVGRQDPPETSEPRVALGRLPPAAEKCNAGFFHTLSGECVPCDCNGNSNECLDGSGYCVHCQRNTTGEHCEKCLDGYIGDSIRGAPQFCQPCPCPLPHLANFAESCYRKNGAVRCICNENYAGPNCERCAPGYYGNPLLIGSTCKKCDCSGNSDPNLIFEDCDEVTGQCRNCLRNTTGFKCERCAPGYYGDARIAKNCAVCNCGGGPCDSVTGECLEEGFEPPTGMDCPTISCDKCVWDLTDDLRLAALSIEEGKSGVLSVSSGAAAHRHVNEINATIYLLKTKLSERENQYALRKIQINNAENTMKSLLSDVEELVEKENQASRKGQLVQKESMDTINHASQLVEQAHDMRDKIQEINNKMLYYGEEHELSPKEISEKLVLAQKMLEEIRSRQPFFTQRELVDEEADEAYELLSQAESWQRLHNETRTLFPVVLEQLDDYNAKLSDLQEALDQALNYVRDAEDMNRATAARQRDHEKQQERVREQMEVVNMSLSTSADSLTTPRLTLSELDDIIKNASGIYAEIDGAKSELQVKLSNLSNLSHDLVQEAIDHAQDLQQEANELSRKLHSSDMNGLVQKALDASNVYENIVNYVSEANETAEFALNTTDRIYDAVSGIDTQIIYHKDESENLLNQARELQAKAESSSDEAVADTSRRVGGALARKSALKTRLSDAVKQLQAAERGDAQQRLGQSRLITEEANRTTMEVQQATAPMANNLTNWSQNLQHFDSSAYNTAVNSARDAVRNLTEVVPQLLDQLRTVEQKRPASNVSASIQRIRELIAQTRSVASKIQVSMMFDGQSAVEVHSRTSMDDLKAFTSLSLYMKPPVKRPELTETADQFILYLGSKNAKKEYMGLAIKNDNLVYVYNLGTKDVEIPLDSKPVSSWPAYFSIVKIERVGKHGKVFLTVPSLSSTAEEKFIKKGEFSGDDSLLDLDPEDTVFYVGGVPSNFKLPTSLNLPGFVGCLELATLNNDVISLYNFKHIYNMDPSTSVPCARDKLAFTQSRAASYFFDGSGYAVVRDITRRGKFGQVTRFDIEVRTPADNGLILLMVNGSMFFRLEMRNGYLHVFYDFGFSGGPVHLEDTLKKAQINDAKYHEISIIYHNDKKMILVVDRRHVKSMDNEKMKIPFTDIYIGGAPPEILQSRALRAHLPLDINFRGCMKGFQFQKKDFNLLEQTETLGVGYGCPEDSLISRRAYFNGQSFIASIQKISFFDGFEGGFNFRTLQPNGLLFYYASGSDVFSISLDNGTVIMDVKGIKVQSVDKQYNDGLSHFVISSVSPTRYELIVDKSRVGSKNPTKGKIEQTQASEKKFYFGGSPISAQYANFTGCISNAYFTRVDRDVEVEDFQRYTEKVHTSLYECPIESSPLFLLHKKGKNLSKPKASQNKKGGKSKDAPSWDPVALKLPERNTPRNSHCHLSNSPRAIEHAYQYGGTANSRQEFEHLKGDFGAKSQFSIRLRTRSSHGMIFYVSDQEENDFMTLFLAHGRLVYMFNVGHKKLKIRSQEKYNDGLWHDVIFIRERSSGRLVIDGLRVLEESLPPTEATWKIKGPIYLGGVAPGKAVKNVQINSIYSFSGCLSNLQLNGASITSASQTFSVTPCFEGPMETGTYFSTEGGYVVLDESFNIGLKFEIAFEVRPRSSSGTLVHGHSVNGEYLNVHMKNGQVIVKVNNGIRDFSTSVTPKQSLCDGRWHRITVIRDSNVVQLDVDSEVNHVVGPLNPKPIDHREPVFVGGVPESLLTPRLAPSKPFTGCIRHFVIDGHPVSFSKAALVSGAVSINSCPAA

Results are given in words; binding and its absence hold for the method and conditions named. Binding can be weak; no strength is given.

B1: PlGF-1 (ligand, UniProt P49763-2 19-149)
chain: LPAVPPQQWALSAGNGSSEVEVVPFQEVWGRSYCRALERLVDVVSEYPSEVEHMFSPSCVSLLRCTGCCGDENLHCVPVETANVTMQLLKIRSGDRPSYVELTFSQHVRCECRPLREKMKPERCGDAVPRR
Consider B1, for which the binding entry is listed as “no binding (tested: 1 μg/mL)”.

B2: placental growth factor (PlGF)-2 (ligand, UniProt P49763-3 19-170)
chain: LPAVPPQQWALSAGNGSSEVEVVPFQEVWGRSYCRALERLVDVVSEYPSEVEHMFSPSCVSLLRCTGCCGDENLHCVPVETANVTMQLLKIRSGDRPSYVELTFSQHVRCECRPLREKMKPERRRPKGRGKRRREKQRPTDCHLCGDAVPRR
In the case of B2, the binding result is reported as “binds”.

For the origin of these results see article PMC5986797, “Laminin heparin-binding peptides bind to several growth factors and enhance diabetic wound healing” (Nature Communications, 2018).
